In test [1] the target is T1, Flag-Slug (human) (UniProt O43623).
T1 sequence: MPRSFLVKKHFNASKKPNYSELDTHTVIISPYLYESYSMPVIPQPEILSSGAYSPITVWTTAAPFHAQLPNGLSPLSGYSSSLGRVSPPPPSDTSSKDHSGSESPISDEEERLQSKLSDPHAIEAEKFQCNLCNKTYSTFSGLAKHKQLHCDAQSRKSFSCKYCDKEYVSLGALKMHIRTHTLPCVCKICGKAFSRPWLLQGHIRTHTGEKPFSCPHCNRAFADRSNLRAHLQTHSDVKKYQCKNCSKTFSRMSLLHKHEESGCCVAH
Description: co-IP; one Flag-tagged and two HA-tagged proteins of Slug, PRMT5 and LSD1 co-expressed in HEK293T cells; immunoprecipitation with appropriate antibodies, western blot. (A western blot detects proteins with antibodies after separation by electrophoresis.)

By UniProt entry, the sequences of proteins in these tests, tags left out.
UniProt O14744: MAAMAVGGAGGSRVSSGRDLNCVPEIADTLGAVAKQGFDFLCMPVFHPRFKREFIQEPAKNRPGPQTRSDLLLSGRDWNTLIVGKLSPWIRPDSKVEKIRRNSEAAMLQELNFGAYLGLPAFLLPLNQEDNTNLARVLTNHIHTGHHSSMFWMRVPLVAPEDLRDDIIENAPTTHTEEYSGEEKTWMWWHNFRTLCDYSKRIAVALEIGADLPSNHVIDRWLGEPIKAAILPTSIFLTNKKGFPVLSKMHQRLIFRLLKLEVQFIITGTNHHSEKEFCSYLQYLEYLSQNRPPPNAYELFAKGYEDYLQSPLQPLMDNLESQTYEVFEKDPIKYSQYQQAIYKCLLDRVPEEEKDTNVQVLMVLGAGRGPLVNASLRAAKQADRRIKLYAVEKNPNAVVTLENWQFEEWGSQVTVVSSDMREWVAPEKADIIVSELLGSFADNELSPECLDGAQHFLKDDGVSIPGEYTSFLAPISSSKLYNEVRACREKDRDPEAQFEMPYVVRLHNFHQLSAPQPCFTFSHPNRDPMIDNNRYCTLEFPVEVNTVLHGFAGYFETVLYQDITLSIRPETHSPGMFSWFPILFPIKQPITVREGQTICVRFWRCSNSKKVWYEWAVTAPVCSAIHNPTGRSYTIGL

For test [2], the target named is T1, Flag-Slug (human). Description: co-IP; Flag peptide eluates of the anti-Flag affinity gel (HEK293T cells expressing Flag-Slug) analysed by western blotting with LSD1 and PRMT5 antibodies.
The target of test [3] is T2, Slug (endogenous) (human (endogenous in MDA-MB-231, SUM159 and Hs578T)) (UniProt O43623).
T2 sequence: T1 sequence
Description: co-IP; endogenous proteins; lysates of MDA-MB-231, SUM159 or Hs578T cells immunoprecipitated with antibodies against Slug, LSD1 or PRMT5, Protein G magnetic beads, 4 °C, lysis buffer 50 mM Tris-HCl pH 8.0, 0.2% NP-40, 150 mM NaCl, 2 mM EDTA; immunoblot.

These are yes or no findings as the source states them, for the method shown. Binding seen in cells or lysates may run through a third protein. Some binding calls cover weakened binding; strength is not graded here. For part of these data: Tags and fused reporters may be left off the sequences shown.

On to “HA-PRMT5 (from UniProt O14744 1-637) (enzyme)”, for which the binding entry in test [1] was “binds”.

As to “Protein arginine methyltransferase 5 (endogenous) (from UniProt O14744 1-637) (enzyme)”, the binding entry in test [2] and in test [3] was “binds” in each case.
